# Assay results as given in article PMC13480958.
# These are yes or no findings as the source states them, for the method shown. Binding seen in cells or lysates may run through a third protein. Binding can be weak; no strength is given. Where a sequence is shown, tags or fusion partners need not be part of it.
# B1: Vg:V5:6xHis (Vestigial) (protein, UniProt Q26366 1-453)
# chain: MAVSCPEVMYGAYYPYLYGRAGTSRSFYQYERFNQDLYSSSGVNLAASSSASGSSHSPCSPILPPSVSANAAAAVAAAAHNSAAAAVAVAANQASSSGGIGGGGLGGLGGLGGGPASGLLGSNVVPGSSSVGSVGLGMSPVLSGAAGHSLHSSHRTHAHSLAHAHTHPHSHTHTHTHQTKEEDLIVPRSEAEARLVGSQQHQHHNESSCSSGPDSPRHAHSHSHPLHGGGGATGGPSSAGGTGSGGGDGGGTGAIPKNLPALETPMGSGGGGLAGSGQGQAQYLSASCVVFTNYSGDTASQVDEHFSRALNYNNKDSKESSSPMSNRNFPPSFWNSNYVHPIPAPTHHQVSDLYGTATDTGYATDPWVPHAAHYGSYAHAAHAHAAHAHAYHHNMAQYGSLLRLPQQYASHGSRLHHDQQTAHALEYSSYPTMAGLEAQVAQVQESSKDLYWF
# B2: Vg-C:GFP:V5:6xHis (Vg amino acids 336-453) (domain or fragment, UniProt Q26366 336-453)
# chain: SNYVHPIPAPTHHQVSDLYGTATDTGYATDPWVPHAAHYGSYAHAAHAHAAHAHAYHHNMAQYGSLLRLPQQYASHGSRLHHDQQTAHALEYSSYPTMAGLEAQVAQVQESSKDLYWF
# B3: Vg-N:GFP:V5:6xHis (Vg amino acids 1-278) (domain or fragment, UniProt Q26366 1-278)
# chain: MAVSCPEVMYGAYYPYLYGRAGTSRSFYQYERFNQDLYSSSGVNLAASSSASGSSHSPCSPILPPSVSANAAAAVAAAAHNSAAAAVAVAANQASSSGGIGGGGLGGLGGLGGGPASGLLGSNVVPGSSSVGSVGLGMSPVLSGAAGHSLHSSHRTHAHSLAHAHTHPHSHTHTHTHQTKEEDLIVPRSEAEARLVGSQQHQHHNESSCSSGPDSPRHAHSHSHPLHGGGGATGGPSSAGGTGSGGGDGGGTGAIPKNLPALETPMGSGGGGLAGSGQ
# B4: Vg-Sd-binding:GFP:V5:6xHis (Vg amino acids 279-335) (domain or fragment, UniProt Q26366 279-335)
# chain: GQAQYLSASCVVFTNYSGDTASQVDEHFSRALNYNNKDSKESSSPMSNRNFPPSFWN
# Biological target: 3xFLAG:Atro (Atrophin) (Drosophila)
# Assay: co-IP; lysates (RIPA buffer) of S2 cells co-transfected with the two proteins; 3xFLAG:Atro precipitated with anti-FLAG (DYKDDDDK Fab-Trap) agarose beads, 1 h; western blot with anti-V5 or anti-Myc
row,binding,Binder
1,binds,B1
2,binds,B2
3,binds weakly,B3
4,no binding,B4
